Data source: PubChem BioAssay AID504808 (Drosophila RNAi Screening Center, 2011)
Assay: 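Genes whose loss lifts activity of an E2F-responsive reporter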 (primary screen). Cell system: Drosophila S2 cells. Reagents: long dsRNA against Drosophila genes. Measured: 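Dual luciferase plate measurements; E2F-specific signal taken as firefly over Renilla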. Scale: E2F firefly: higher = more E2F reporter activity; Renilla normaliser: higher = more normaliser reporter signal. Active means: 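a knock-down counted as active when the firefly/Renilla E2F signal rose above 50%, a threshold chosen arbitrarily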.
In all, the deposit lists about 21,000 reagents; below is an unselected part of those with a known target gene and a result. Of all reagents, 18 (0.084%) were called active. 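Raw counts without plate normalisation, one of two replicates; the ratio scores behind the calls were not deposited.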 Names joined by + are all predicted targets of the reagent. The record does not give: the amount of reagent, the time to read-out.

Against Eph (Eph receptor tyrosine kinase) [DRSC17164], the entry reads E2F firefly, rep 1 = 77561; Renilla normaliser, rep 1 = 3879; inactive. CG10353 [DRSC19354] scored E2F firefly, rep 1 = 83148; Renilla normaliser, rep 1 = 4138; inactive. For CG12118 [DRSC17813] the deposit lists E2F firefly, rep 1 = 8787; Renilla normaliser, rep 1 = 772; inactive. Against l(2)gd1 (lethal (2) giant discs 1) [DRSC02773], the entry reads E2F firefly, rep 1 = 74393; Renilla normaliser, rep 1 = 3354; inactive.

2 of these entries, set out differently:
target gene,amplicon,"E2F firefly, rep 1","Renilla normaliser, rep 1",call
Eph (Eph receptor tyrosine kinase),DRSC17164,77561,3879,inactive
CG10353,DRSC19354,83148,4138,inactive

Next entries:
kek6 (kekkon 6) [DRSC15299] showed E2F firefly, rep 1 = 52241; Renilla normaliser, rep 1 = 3598; inactive. Against Taf9 (TBP-associated factor 9) [DRSC20326] the deposit lists E2F firefly, rep 1 = 1.57e5; Renilla normaliser, rep 1 = 5902; inactive. Against CG10492 [DRSC02064] the deposit lists E2F firefly, rep 1 = 72530; Renilla normaliser, rep 1 = 3278; inactive. With knock-down of Abcd3 (ATP binding cassette subfamily D member 3) [DRSC19488], the record shows E2F firefly, rep 1 = 1.32e5; Renilla normaliser, rep 1 = 5195; inactive. For Unr (Upstream of N-ras) [DRSC10761], the values are E2F firefly, rep 1 = 76245; Renilla normaliser, rep 1 = 3759; inactive. Depletion of Atg2 (Autophagy-related 2) [DRSC08273] gave: E2F firefly, rep 1 = 77555; Renilla normaliser, rep 1 = 3572; inactive.

After knock-down of CG14355 [DRSC14818], the record shows E2F firefly, rep 1 = 74324; Renilla normaliser, rep 1 = 3481; inactive. With knock-down of Cht7 + tRNA:Cys-GCA-1-4 + tRNA:Lys-CTT-1-13 [DRSC08021] the results were E2F firefly, rep 1 = 1.17e5; Renilla normaliser, rep 1 = 3795; inactive.
